Laboratory results taken from patent US20100286057A1.
No constants are given. Whether binding was seen depends on the method and setting. Some entries that bind do so weakly or less than the wild type. Blank lines part the entries; values can stand above or below the binder they belong to.

Protein sequences, listed by entry. Tags and fused reporters are not part of them. Lines headed by an entry give the natural chain unless they say otherwise; changes in a name come on top.
UniProt Q07812: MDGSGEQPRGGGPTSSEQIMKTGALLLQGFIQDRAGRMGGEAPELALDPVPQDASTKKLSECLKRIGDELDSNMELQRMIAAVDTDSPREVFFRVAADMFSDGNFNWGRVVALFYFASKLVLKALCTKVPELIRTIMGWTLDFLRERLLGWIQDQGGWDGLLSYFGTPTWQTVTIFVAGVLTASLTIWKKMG

Experiments:
[1] = target: BAX (Homo sapiens (Human)) (UniProt Q07812); experiment: assay not named
[2] = target: BAX (Homo sapiens (Human)) (UniProt Q07812); experiment: 1H-15N HSQC / PRE NMR

binding [1]: binds
B1: BID SAHB (peptide)
peptide: ESQEDIIRNIARHLAQVGDEMDRSI
modifications: hydrocarbon staple

binding [2]: binds
B2: BIM SAHB(W147C-MTSL) (peptide)
peptide: EICIAQELRRIGDEFNAYYARR
modifications: MTSL nitroxide spin label on Cys 147; hydrocarbon staple

binding [1]: binds
B3: myristoylated BID SAHB compound (peptide)
peptide: ESQEDIIRNIARHLAQVGDEMDRSI
modifications: amino terminus capped with myristic acid; hydrocarbon staple

binding [2]: binds
B4: BIM SAHB(A164C-MTSL) (peptide)
peptide: EIWIAQELRRIGDEFNAYYCRR
modifications: MTSL nitroxide spin label on Cys 164; hydrocarbon staple
